# Laboratory results published in PubChem BioAssay AID743255 (National Center for Advancing Translational Sciences (NCATS), 2014).
# Chains of the proteins cited; added tags and fusions are not shown. Lines headed by an entry give the natural chain unless they say otherwise; changes in a name come on top.
# UniProt O94782: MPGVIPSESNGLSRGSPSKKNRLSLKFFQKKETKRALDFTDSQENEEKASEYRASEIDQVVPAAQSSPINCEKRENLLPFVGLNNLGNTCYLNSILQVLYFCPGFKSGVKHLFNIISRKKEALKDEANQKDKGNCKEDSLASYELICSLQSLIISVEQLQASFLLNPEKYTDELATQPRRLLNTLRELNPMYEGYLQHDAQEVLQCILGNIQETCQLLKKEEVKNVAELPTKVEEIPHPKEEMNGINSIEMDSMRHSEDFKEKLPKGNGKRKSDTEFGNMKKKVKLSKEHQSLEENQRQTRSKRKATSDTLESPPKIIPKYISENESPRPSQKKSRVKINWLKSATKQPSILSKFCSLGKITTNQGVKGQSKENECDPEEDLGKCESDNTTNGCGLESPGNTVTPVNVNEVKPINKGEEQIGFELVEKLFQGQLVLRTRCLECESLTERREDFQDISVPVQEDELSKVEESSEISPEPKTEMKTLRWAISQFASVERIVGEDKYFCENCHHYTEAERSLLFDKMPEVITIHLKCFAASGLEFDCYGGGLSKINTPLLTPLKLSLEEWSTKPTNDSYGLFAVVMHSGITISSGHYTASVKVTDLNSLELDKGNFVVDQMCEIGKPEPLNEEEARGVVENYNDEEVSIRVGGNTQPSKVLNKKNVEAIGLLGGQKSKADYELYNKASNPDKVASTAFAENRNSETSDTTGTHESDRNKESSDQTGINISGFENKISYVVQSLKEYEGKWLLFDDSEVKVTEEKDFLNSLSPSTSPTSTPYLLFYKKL
# Out of some 390,000 compounds screened, about 910 (0.23%) were called active. This list was built around the results that the source calls inconclusive (neither active nor inactive); the mix of calls is not that of the screen. Calls come from the whole dose curve; as a rule, active = well fitted inhibition curve with a large enough effect; inconclusive = small, poorly fitted or top-dose-only effect; inactive = no such curve, though single readings can be large or run the other way. Where the call is inconclusive, the potency comes from a doubtful curve fit.
# Biological target: Ubiquitin carboxyl-terminal hydrolase 1 (Homo sapiens) (UniProt O94782)
# Assay: Inhibitors of USP1/UAF1: Primary Screen; note: nearly all actives have a fitted effect of over 60% in size
# Conditions: recombinant USP1/UAF1, Ub-Rhodamine cleavage fluorescence; series mostly up to 57.1 µM
# Method in brief: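 Step one: compound is pinned into 1nM USP1/UAF1 in HEPES pH 7.8 buffer with TCEP. Step two: 15 min room-temperature incubation. Step three: Ub-Rho (150nM final) starts cleavage, tracked by fluorescence over six one-minute reads.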
# Potency is the fitted concentration of half-maximal effect.
row,Structure (SMILES),Potency
1,NC(=O)C1CCN(c2ccc(S(=O)(=O)N3CCCCC3)cc2[N+](=O)[O-])CC1,"inconclusive: 7.94 µM [inhibitor, partial curve, poor fit]"
2,Cc1c(C)n(Cc2ccccc2)c2ccc(C(=O)NCCc3ccccc3Cl)cc12,"inconclusive: 35.5 µM [inhibitor, partial curve, poor fit]"
3,CCCCn1c(-c2cccc(Br)c2)nc2cc3[nH]c(=O)c(C(C)C)nc3cc21,"inconclusive: 44.7 µM [inhibitor, partial curve]"
4,CCC(C)C(CO)NCCCn1cnc2c(SC)ncnc21 (configuration not stated),"inconclusive: 0.251 µM [inhibitor, full curve, poor fit]"
5,COc1cc(CCCN2CCNC[C@@H]2C(C)O)cc(OC)c1OC (some centres not stated),"inconclusive: 10 µM [inhibitor, partial curve]"
6,COc1ccccc1/C=C/C=N/N1CCN(c2ccccn2)CC1,"inconclusive: 35.5 µM [inhibitor, partial curve]"
7,O=C(Cn1cnc2c(nnn2Cc2ccccc2F)c1=O)N1CCN(c2ccccc2)CC1,"inconclusive: 25.1 µM [inhibitor, single point]"
8,NNc1cc2c(nn1)CCN(C(=O)c1ccccc1)C2,"inconclusive: 3.98 µM [inhibitor, partial curve]"
9,CCN1C(=O)c2ccc(C(=O)O)cc2C1=O,inactive
10,COc1cc(/C=C(/C#N)c2ccc(C)cc2)ccc1Oc1ccc([N+](=O)[O-])cn1,"inconclusive: 0.794 µM [inhibitor, full curve, poor fit]"
11,COc1ccc(CNC(=O)COC(=O)c2ccc(OCc3c(C)noc3C)cc2)cc1OC,inactive
12,CCOc1cccc(CNc2ccc(O)cc2)c1OCc1ccccc1Cl,"inconclusive: 31.6 µM [inhibitor, partial curve, poor fit]"
13,CC1CCC(C(C)C)C(OC(=O)C[n+]2cc(-c3ccc(Cl)cc3)n3c2CCC3)C1 (configuration not stated),inactive
14,CC(Oc1ccc(F)cc1)C(=O)Nc1cc(-c2ccc(F)c(F)c2)no1 (configuration not stated),inactive
15,C/C(O)=C(\N=Nc1cc(C)ccc1O)C(N)=O,inactive
16,COc1cc2cc(CCCOC(=O)c3ccc4c(c3)OCO4)oc(=O)c2cc1OC,"inconclusive: 44.7 µM [inhibitor, partial curve, poor fit]"
17,Cc1cc(NC(=O)COC(=O)COc2ccc3c4c(c(=O)oc3c2)CCC4)no1,"inconclusive: 39.8 µM [inhibitor, partial curve, poor fit]"
18,Cc1ccc(-n2nc(C)c(/C=N/n3c(C)n[nH]c3=S)c2Cl)cc1,"inconclusive: 44.7 µM [inhibitor, partial curve, poor fit]"
19,CCC(=O)N(C)C[C@H]1Oc2ncc(C#Cc3cccnc3)cc2C(=O)N([C@@H](C)CO)C[C@@H]1C,"inconclusive: 44.7 µM [inhibitor, partial curve, poor fit]"
20,COc1ccc(NC(=O)CN(C)C(=O)CNC(=O)c2sc3ccccc3c2Cl)cc1,inactive
21,COc1cc(/C=N/Nc2ccc(S(N)(=O)=O)cc2[N+](=O)[O-])cc(OC)c1O,inactive

# Ordered by formula weight (smallest number first): 3 of the compounds above.
row,Structure (SMILES),Potency
18,Cc1ccc(-n2nc(C)c(/C=N/n3c(C)n[nH]c3=S)c2Cl)cc1,"inconclusive: 44.7 µM [inhibitor, partial curve, poor fit]"
2,Cc1c(C)n(Cc2ccccc2)c2ccc(C(=O)NCCc3ccccc3Cl)cc12,"inconclusive: 35.5 µM [inhibitor, partial curve, poor fit]"
20,COc1ccc(NC(=O)CN(C)C(=O)CNC(=O)c2sc3ccccc3c2Cl)cc1,inactive

# Following part:

row,Structure (SMILES),Potency
1,O=C(Cn1ncc2c3ccccc3n(Cc3ccc(Cl)cc3)c2c1=O)NCc1cccs1,"inconclusive: 39.8 µM [inhibitor, partial curve, poor fit]"
2,CCC(CO)Oc1cc(NCc2ccccc2)c2ncn(C3CCCC3)c2c1 (configuration not stated),"inconclusive: 17.8 µM [inhibitor, partial curve]"
3,COc1ccc(-c2cn3nc(N4CCC(C(=O)Nc5cccc(OC)c5)CC4)sc3n2)cc1,"inconclusive: 4.47 µM [inhibitor, partial curve]"
4,O=C(Nc1ccc(NC(=O)c2cccs2)cc1)c1cccc(Br)c1,"inconclusive: 39.8 µM [inhibitor, partial curve, poor fit]"
5,COc1ccc(/C=C/C(=O)OCC(=O)NCc2ccccc2)cc1OC,inactive
6,Cc1nc2sc(C(=O)Nc3ccc(F)cc3)c(N)c2c(-c2ccc(Br)cc2)c1C(=O)Nc1ccc(Cl)cc1,"inconclusive: 11.2 µM [inhibitor, partial curve]"
7,CCc1cccc(NC(=O)c2cnc(SC)nc2-c2ccccc2)c1,inactive
8,CCn1ccnc1C(O)c1cccc(OC)c1OC (configuration not stated),"inconclusive: 0.282 µM [inhibitor, full curve]"
9,Cc1cc(C)nc(SCC(=O)NC(=O)c2ccccc2O)n1,"inconclusive: 7.94 µM [inhibitor, partial curve, poor fit]"
10,O=C(NP(=O)(N1CCCC1)N1CCCC1)C1=C(N2CCOCC2)/C(=C/c2cccc([N+](=O)[O-])c2)CC1,inactive
11,CCc1ccc(NC(=O)c2ccc(F)c(S(=O)(=O)N(C)C3CCCCC3)c2)cc1,"inconclusive: 5.01 µM [inhibitor, partial curve]"
12,CC(C)C[C@H](N)c1cn([C@@H](CCCCN)C(=O)N2CCNCC2)nn1,inactive
13,CC1=C(C(=O)OCC(C)C)C(c2ccc(OCc3ccccc3)cc2)N2C(=O)CCSC2=N1 (configuration not stated),inactive
14,COc1ccccc1N1CCN(/N=C\c2ccccc2)CC1,inactive
15,CCC(C(=O)N1CCN(c2ccccc2F)CC1)n1nc(C)c2sc3ccccc3c2c1=O (configuration not stated),inactive
16,COCCn1nnnc1C(c1cccs1)N1CCN2CCCC2C1 (configuration not stated),inactive
17,COc1cc(NC(=O)c2nc3ccccc3nc2C)cc(OC)c1OC,"inconclusive: 5.62 µM [inhibitor, full curve, poor fit]"
18,Cc1ccccc1OCC(O)Cn1c(NCc2ccco2)nc2c1c(=O)[nH]c(=O)n2C (configuration not stated),"inconclusive: 39.8 µM [inhibitor, single point]"
19,COC(=O)c1ccc(CSc2nc3ccccc3c(=O)n2-c2ccccc2)o1,"inconclusive: 2 µM [inhibitor, full curve, poor fit]"
20,Cc1ccc(C)c(CN2C(=O)C3(c4ccccc42)N(c2cccc(C(F)(F)F)c2)C(=O)CS3(=O)=O)c1 (configuration not stated),"inconclusive: 0.0708 µM [inhibitor, full curve, poor fit]"
21,O=C(c1cccs1)N(CC1CCCO1)c1nc(-c2ccccc2)cs1 (configuration not stated),"inconclusive: 28.2 µM [inhibitor, partial curve]"
